Primary screen of a compound library

Mtb glucose medium: 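Whole-cell growth test on Mycobacterium tuberculosis, read after 3 days in glucose-containing 7H9 medium; the read-out is not stated. Concentration: 50 µM. Higher reads as more growth inhibition (inferred: compounds with an IC50 in retests scored well above the rest). Of about 69,000 compounds tested this way, about 760 (1.1%) reached 50% or more in at least one test.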
Mtb cholesterol medium: 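Growth of Mycobacterium tuberculosis over 4 days (cholesterol / DPPC medium with tyloxapol); the read-out is not stated. Compounds at 50 µM. Direction is inferred from retests: higher values go with more growth inhibition. Size under these conditions: about 69,000 compounds, about 370 of them at 50% or above in at least one test.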

The filed quantity is “Percent Effect” (%). How 0% and 100% were set is not recorded. Most values in the screen are low, and negative values occur. This is an unselected part of the compounds tested. Two or more numbers in one place are separate tests of the same structure; such repeats can differ widely.

SMILES | Mtb glucose medium | Mtb cholesterol medium
Cc1cc(C(=O)N2CCCC2)ccc1NCC(=O)N1CCCCC1C (stereo unspecified) | 1.404 | -28.56
O=C1CC(c2ccc(F)cc2)c2snc(C(=O)O)c2N1 (stereo unspecified) | 20.5 | -0.1481
Cc1ccc(N2CCCc3sc(C(=O)NCc4cccnc4)nc32)nn1 | 9.395 | -5.059
Cc1cc(C)c(CNC(=O)NCC2COCCO2)c(=O)[nH]1 (stereo unspecified) | 15.21 | 2.387
O=C1CCC2(CCN(CC[C@H](O)c3ccccc3)CC2)CN1CCO | -19.34 | -30.91
O=c1c(NCCNCCO)c(N2CCN(c3ccc(F)cc3)CC2)c1=O | 1.084 | -3.713
CCOc1ccc(C(=O)N(Cc2cnn(C)c2)C(C)C)cc1OCC | -4.538 | 14.71
Cc1nc(CN2CCCC(NCc3sccc3C)C2)no1 (stereo unspecified) | 23.25 | 5.417
COCCN1CCCn2cnc(CN(C)C(C)C)c2C1.O=C(O)C(F)(F)F.O=C(O)C(F)(F)F | -5.788 & -0.4061 | -5.74
CCc1nnsc1C(=O)N1CCCC(n2ccnc2C(C)C)C1 (stereo unspecified) | 4.6 | -5.354
Cn1cc(CNCCNC(=O)Cc2ccccc2)c(-c2cccnc2)n1 | -5.749 | -11.71
COc1cccc(N2CCN(C(=O)c3ccc(=O)n(C)c3)CC2)c1 | -8.928 | -10.43
Cc1c(C(=O)NCCCS(C)(=O)=O)cccc1-c1ccccn1 | 9.323 | -1.271
COc1cccc(CC(=O)N2CCC(O)(C(F)(F)F)C2)c1 (stereo unspecified) | -2.229 & 14.86 | -1.741
O=C(Nc1cc(C(F)(F)F)c[nH]c1=O)N1CCSCC1 | 29.05 | -5.23
COCC(O)CN(C)C(=O)NCc1ccc(S(C)(=O)=O)cc1 (stereo unspecified) | 9.634 | -11.03
CC(C)COc1ccccc1CN(C)C(=O)c1cc(=O)[nH]c(=O)[nH]1 | 3.434 | -35.58
COc1ccc2c(c1)CCN(CCC(=O)O)CC2 | 2.452 | -37.03
CSCCCNc1ncnc2cccc(F)c12 | -38.02 & -3.379 | -12.62
CC(=O)Nc1nc(C(=O)N2CCCC2Cn2cc(C)cn2)cs1 (stereo unspecified) | 3.747 | -5.604
CC(C)c1nc2c(n1C)CCN(Cc1nc(-c3ccsc3)no1)C2 | 20.63 | 11.6
CCc1cnc(N2CCN(Cc3ccon3)CC2)s1 | 53.93 | 26.6
CO[C@H]1CN(S(=O)(=O)c2ccc(C)cc2)C[C@@]12CCCO2 | -1.356 | -3.21
CCCc1cc(N2CCCC2Cn2cc(C)cn2)n2ncnc2n1 (stereo unspecified) | 35.35 | -1.002
O=S(=O)(Nc1cnn(C2CCOCC2)c1)c1ccc(Br)cc1 | 14.72 | 2.765
COCCc1noc(CN2CCCCC2Cn2cccn2)n1 (stereo unspecified) | 19.07 | 9.805
COCCC1(C(=O)O)CCCN(Cc2ccccc2OCCO)C1 (stereo unspecified) | -9.808 | -15.61
N[C@@H](C(=O)N1CCN(c2ccccc2Cl)C(=O)C1)c1ccccc1 | 6.922 | 9.007
Cc1csc(CCCNC(=O)NC2CC(=O)N(C(C)(C)C)C2)n1 (stereo unspecified) | 9.77 | -5.488 & -0.9289
Cn1ccc(C(=O)NC2CCC23CCN(C(=O)c2ccnnc2)CC3)c1 (stereo unspecified) | -44.11 | -21.85
O=C(CCC(=O)N1CCOCC1c1ccccc1)c1cccs1 (stereo unspecified) | 7.837 & 12.98 | 10.33
Cc1nc(CN2CCN(C(=O)COc3c(C)ccc(C)c3C)CC2)no1 | 4.75 & -2.118 | -6.106
CC(C)NC(=O)N1CCN(S(=O)(=O)C2CC2)CC2(CNC(=O)C2)C1 (stereo unspecified) | 5.575 | -1.456
COc1ccc(C(=O)NCC2CCCN(C3CCOCC3)C2)c(O)c1 (stereo unspecified) | -32.19 | -40.5
Cc1nc2ccc(C(=O)N3C[C@@H](O)[C@H](N4CCN(C)CC4)C3)cc2[nH]1 | -10.85 | 6.01
CNc1cc(C)nc(-c2cc(NC3CCNCC3)nc3[nH]ccc23)n1 | 28.78 | 16.39
O=C(O)C(F)(F)F.O=C(O)C(F)(F)F.[H][C@]12CC(=O)N(Cc3cccc(C)n3)[C@@]1([H])CCN2CC1CC1 | -3.14 | 8.661
N#Cc1cccc(CS(=O)(=O)NCCC(O)c2ccccc2)c1 (stereo unspecified) | 5.414 | -15.26
Cc1cc(C(=O)NCCN2CCCCC2)nn1C(C)(C)C | 18.09 | 6.721
[H][C@@]12CCN(Cc3scnc3C)C[C@]1(C(=O)N1CCCO1)CCO2 | 20.63 & -4.86 | -31.11 & -6.576
c1cncc(N2CCOC3(CCCN(c4nncs4)C3)C2)c1 (stereo unspecified) | -15.08 & -4.811 | -21.27 & 16.2
CCOc1ccc(C2SCC(=O)Nc3c2c(=O)[nH]n3C(C)C)cc1 (stereo unspecified) | 12.52 | -4.235
CN(C)C(=O)COC1COC2(CCN(CC3CC3)CC2)C1.O=C(O)C(F)(F)F (stereo unspecified) | -1.714 | 2.652
CCN(CC)C(=O)c1c(Br)cnn1CC | -5.492 | -11.11
COc1ccccc1OCCN1CCC(N2CCNC2=O)CC1 | -37.71 | -18.45
CN1CCN(C)C(CNc2c(C#N)cnc3ccc(Cl)cc23)C1 (stereo unspecified) | -29.27 | -2.452
COCCNS(=O)(=O)c1ccc2c(c1)CCN(C(=O)c1cncn1C)C2 | 2.159 & -14.63 | -7.275
O=C(Cc1csc(-c2ccco2)n1)N1CCN(c2cnccn2)CC1 | 2.689 | 2.038
CNC(=O)C1CCN(c2nc3nc[nH]c(=O)c3s2)CC1 | -9.188 | -13.65
Cc1cccnc1CNCC1(O)CCCN(CC(C)(C)C)C1=O (stereo unspecified) | -18.35 | 3.117
CC(C)N1CCC(c2ccnc3c(C(=O)N4CCCC4)ncn23)CC1 | -5.549 & 0.7468 | 9.984
CN(CC1CCCC1)C(=O)c1cn(C)nc1-c1cccnc1 | -22.44 | 16.55
[H][C@@]12CN(Cc3cccnc3)C[C@]1([H])C(=O)NC21CCN(C(=O)C(C)C)CC1 | -16.77 | -23.34
CS(=O)(=O)CCSC1CCN(c2ccccc2F)C1=O (stereo unspecified) | -0.4029 & 3.83 | -6.139
CN(CCOc1cccc(F)c1)CC(=O)Nc1ccncc1 | 1.967 & -1.788 | 3.841
COc1nc(C)c(C(=O)N(C)Cc2nc(-c3ccccn3)no2)s1 | -7.536 | -15.6
CN(C(=O)Cc1ccc2c(c1)OCCO2)C1CCCCC1 | 42.15 | 36.56
CSc1ccc(C(=O)N2CC(=O)N(Cc3ccccc3)CC(O)C2)cc1 (stereo unspecified) | -5.121 | -22.51
COc1ccc(F)c(-c2cc(O)nc(N)n2)c1 | 0.08892 & -12.31 | -9.741 & -5.161
COc1ccc(NC(=O)N2CCCC2c2ccncc2)cn1 (stereo unspecified) | -20.74 | 4.718

Some entries from above, unchanged:

Cc1nc2ccc(C(=O)N3C[C@@H](O)[C@H](N4CCN(C)CC4)C3)cc2[nH]1 gave Mtb glucose medium: -10.85%; Mtb cholesterol medium: 6.01%.
CCc1cnc(N2CCN(Cc3ccon3)CC2)s1 gave Mtb glucose medium: 53.93%; Mtb cholesterol medium: 26.6%.
CC(C)COc1ccccc1CN(C)C(=O)c1cc(=O)[nH]c(=O)[nH]1 gave Mtb glucose medium: 3.434%; Mtb cholesterol medium: -35.58%.
[H][C@@]12CN(Cc3cccnc3)C[C@]1([H])C(=O)NC21CCN(C(=O)C(C)C)CC1 gave Mtb glucose medium: -16.77%; Mtb cholesterol medium: -23.34%.
COc1ccc(C(=O)NCC2CCCN(C3CCOCC3)C2)c(O)c1 (stereo unspecified) gave Mtb glucose medium: -32.19%; Mtb cholesterol medium: -40.5%.
Cn1ccc(C(=O)NC2CCC23CCN(C(=O)c2ccnnc2)CC3)c1 (stereo unspecified) gave Mtb glucose medium: -44.11%; Mtb cholesterol medium: -21.85%.
COc1ccc2c(c1)CCN(CCC(=O)O)CC2 gave Mtb glucose medium: 2.452%; Mtb cholesterol medium: -37.03%.

The values are deposited in ChEMBL (CHEMBL3988442, “University of Dundee, Small-Polar-MMV Screening Library” (2021)).